{
  "source": "patent US20250222143A1",
  "about": "(The Research Foundation for the State University of New York, priority 2021, published 2025)",
  "assay": "general procedure: Fmoc solid-phase peptide synthesis; 2-chlorotrityl resin; HBTU/DIPEA",
  "settings": "whole synthesis, scale 0.086 mmol",
  "data": [
    {"substance": "(2S)-2-({[(2S)-1,5-bis(tert-butoxy)-1,5-dioxopentan-2-yl]carbamoyl}amino)-6-[(2R)-3-(naphthalen-2-yl)-2-{[(1r,4r)-4-{[(2S)-2-[(4R)-5-(tert-butoxy)-4-{4-[2-(tert-butoxy)-2-oxoethyl]-7-({6-[(tertbutoxy)carbonyl]pyridin-2-yl}methyl)-1,4,7-triazonan-1-yl}-5-oxopentanamido]-6-[4-(4-iodophenyl)butanamido]hexanamido]methyl}cyclohexyl]formamido}propanamido]hexanoic acid", "values": [
      {"measurement": "isolated mass", "result": 0.0085, "unit": "g"},
      {"measurement": "isolated yield", "result": 6, "unit": "%"}
    ]}
  ]
}
